Measured values from the supplement of paper PMC5949888.
Most values lie at the floor of the assay. Slopes are relative: functional sequences can read slightly below zero.

Test system: Saccharomyces cerevisiae PS128 hsf1 delta, HSF1(1-493) fusion
Test: growth estimate (transactivation domain function in HSF1 fusion, heat-shock survival) (a.u. (slope of normalised read count over time)); higher = stronger growth at 37°C, i.e. more transactivation activity
Details: library: random library

Substance	growth estimate
PTLLPSLT	< -0.25
PTLRSILRTTDQSV	< -0.25
PTLSKLGPG	< -0.25
PTLSSQ	< -0.25
PTMLRPPVSRRVHVGVSAEG	< -0.25
PTMVKAFGWCMFGWATIRCR	< -0.25
PTP	< -0.25
PTPCG	-0.245
PTPGRVTSVL	-0.212
PTPHRCSATCPGGGS	< -0.25
PTPSYK	< -0.25
PTQCLSKKVITHGEDHTLTE	< -0.25
PTQLGIYGSLCNRGPTTQHQ	< -0.25
PTQPWGGEPPPGF	< -0.25
PTQRPMPLLTIELKGLPLAP	< -0.25
PTQS	< -0.25
PTRGVKSRAELQWANFVFWR	< -0.25
PTSLTPYAIGQWWLLCIEKN	< -0.25
PTSPTQNGVCRAHFCRENAL	-0.246
PTSQKAKVVVEDV	< -0.25
PTVELCRLLP	< -0.25
PTVINSRYLSLVGYEHSSKS	< -0.25
PTVNHIVDGHRVIA	-0.233
PTVRDGLAYGWFDMRKSGMG	< -0.25
PTVVKSTF	< -0.25

Substance	growth estimate
PTVYGRPKGYALHKCNKLLS	< -0.25
PTWHHLVAPGFGYQAITLGK	< -0.25
PVCARVWVNVSPQMGT	-0.112
PVCASCSIIVSRPLVRFIGV	< -0.25
PVCILQRIEREFPVAATRQF	< -0.25
PVCSFLRLLFSLNMGRLTSG	< -0.25
PVDGGFEIEGHTT	< -0.25
PVE	< -0.25
PVERRWIRW	< -0.25
PVFLVGFLLSESHRTRLPGP	< -0.25
PVFSVSECTLWRLGFSHPSN	-0.231
PVGAVSGTAVAPGCPQLFAD	< -0.25
PVGIFSFWINNQKHLRQGFA	< -0.25
PVGPCIRLMEAP	< -0.25
PVGRLRSFT	-0.243
PVGSVRP	< -0.25
PVHEGSGGW	< -0.25
PVHRYLDKGTSRDRLGLTRS	< -0.25
PVIATVGLDRIQSRACLSRE	< -0.25
PVIHLDQVDAVRRRLVGRDT	< -0.25
PVILTKPGHLLFEIIETDLA	< -0.25
PVKDVAGCGTSTNTRAHLRS	< -0.25
PVKTVSNMSFTWEQRKAHSI	< -0.25
PVLAVKYCLD	< -0.25
PVLGWLATKTC	< -0.25

Exported in markdown: entries from further up.

| Substance | growth estimate |
| --- | --- |
| PTSQKAKVVVEDV | < -0.25 |
| PTVELCRLLP | < -0.25 |
| PTVINSRYLSLVGYEHSSKS | < -0.25 |
| PTVNHIVDGHRVIA | -0.233 |

(cont.)

Substance	growth estimate
PVLGWNLARGSRKGPVGRRV	< -0.25
PVLKL	< -0.25
PVLLTYISAAISLEYSLIII	< -0.25
PVLQCHGIARMAGEVG	< -0.25
PVLRDKWPGPLCVKSLSG	< -0.25
PVLSGKPTHVCYIPEVRMDL	< -0.25
PVNWSAFDRRVPGRRSNRAR	< -0.25
PVPIYM	< -0.25
PVPSIH	< -0.25
PVPTGFLVFKSAHWAYDACR	< -0.25
PVQDGSMFWSKCF	< -0.25
PVRGAPVENNTAYSAPPHDR	< -0.25
PVRNI	< -0.25
PVRVRGRVHARHSRGYLRSL	< -0.25
PVSGLEPAFSIIDACFSIIR	< -0.25
PVSHGMGLVYKYT	< -0.25
PVSPSQK	< -0.25
PVSRSTLS	< -0.25
PVSVPM	< -0.25
PVTIK	< -0.25
PVTSQ	< -0.25
PVTVKRALCRIAPCSVLSRD	< -0.25
PVTVM	< -0.25
